Paper PMC11858653, “Design, Synthesis and Bioactive Evaluation of Topo I/c-MYC Dual Inhibitors to Inhibit Oral Cancer via Regulating the PI3K/AKT/NF-κB Signaling Pathway” (Molecules, 2025)

Tested on: Cal27 cells
Test: Cellular localization by confocal microscopy
Format: cell-based, human
Conditions: Cal27, 48 h

Cc1cc(C)c2c(n1)S(=O)(=O)c1c-2nc(NCCN2CCCCC2)c2ccccc12 [7be, 7,9-Dimethyl-5-((2-(piperidin-1-yl)ethyl)amino) pyrido[3′,2′:4,5]thieno[3,2-c]isoquinoline 11,11-dioxide]
Pearson's colocalization coefficient with LTDR (lysosome): 0.8
colocalization coefficient with MTDR (mitochondria): 0.42
